# Some of the results follow.
# B1: EUL D1A first (Oryza sativa) (protein)
# chain: MFGFGHHHNQAPAAPSDPNQIFKIFCRANENYCLTVRDSAVVLAPVNPKDEHQHWFKDMRFSTKVKDGEGMPAFALVNKATGLAVKHSLGQSHPVKLVPFNPEYEDASVLWTESKDVGKGFRCIRMVNNTRLNLDAFHGDKDHGGVRDGTTVVLWEWCKGDNQSWKILPWGPEAHSSSPGAATILEQKLISEEDLNSAVDHHHHHH
# How the values were obtained:
# Test in all cases: glycan array binding signal (z-score within array); higher = stronger binding
# Conditions in all cases: glycan notation: IUPAC condensed, linker removed
# Gal3S(b1-4)Glc = biological target: Gal3S(b1-4)Glc
# How it was run: (§1)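 Arrays were curated from the Consortium for Functional Glycomics database, 3228 in total, and kept only where the protein sequence was available. Binding is expressed as a within-array Z-score. This score was averaged across arrays of the same protein sequence at different concentrations or buffers and across linkers, and negative values can be read as non-binding.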
# Gal3S(b1-4)Glc6S = biological target: Gal3S(b1-4)Glc6S
# How it was run: as §1
# Gal3S(b1-4)GlcNAc = biological target: Gal3S(b1-4)GlcNAc
# How it was run: as §1
# [1] = biological target: Gal3S(b1-4)[Fuc(a1-3)]Glc6S
# How it was run: as §1
# [2] = biological target: Gal3S(b1-4)[Fuc(a1-3)]GlcNAc
# How it was run: as §1
# [3] = biological target: Gal3S(b1-4)[Fuc(a1-3)]GlcNAc6S
# How it was run: as §1
# Gal3S4S(b1-4)GlcNAc = biological target: Gal3S4S(b1-4)GlcNAc
# How it was run: as §1
# Gal3S6S(b1-4)GlcNAc = biological target: Gal3S6S(b1-4)GlcNAc
# How it was run: as §1
# Gal3S6S(b1-4)GlcNAc6S = biological target: Gal3S6S(b1-4)GlcNAc6S
# How it was run: as §1
# Gal4S(b1-4)GlcNAc = biological target: Gal4S(b1-4)GlcNAc
# How it was run: as §1
# Gal4S6S(b1-4)GlcNAc = biological target: Gal4S6S(b1-4)GlcNAc
# How it was run: as §1
# Gal6P(b1-4)GlcNAc = biological target: Gal6P(b1-4)GlcNAc
# How it was run: as §1
# Gal6S(b1-3)GlcNAc = biological target: Gal6S(b1-3)GlcNAc
# How it was run: as §1
# Gal6S(b1-3)GlcNAc6S = biological target: Gal6S(b1-3)GlcNAc6S
# How it was run: as §1
# Gal6S(b1-4)Glc = biological target: Gal6S(b1-4)Glc
# How it was run: as §1
# Gal6S(b1-4)Glc6S = biological target: Gal6S(b1-4)Glc6S
# How it was run: as §1
# Gal6S(b1-4)GlcNAc = biological target: Gal6S(b1-4)GlcNAc
# How it was run: as §1
# Gal6S(b1-4)GlcNAc6S = biological target: Gal6S(b1-4)GlcNAc6S
# How it was run: as §1
# GalNAc(a1-3)Gal = biological target: GalNAc(a1-3)Gal
# How it was run: as §1
# GalNAc(a1-3)GalNAc = biological target: GalNAc(a1-3)GalNAc
# How it was run: as §1
# [4] = biological target: GalNAc(a1-3)GalNAc(b1-3)Gal(a1-4)Gal(b1-4)Glc
# How it was run: as §1
# [5] = biological target: GalNAc(a1-3)GalNAc(b1-3)Gal(a1-4)Gal(b1-4)GlcNAc
# How it was run: as §1
# GalNAc(b1-3)Gal = biological target: GalNAc(b1-3)Gal
# How it was run: as §1
# [6] = biological target: GalNAc(b1-3)Gal(a1-4)Gal(b1-4)GlcNAc
# How it was run: as §1
# [7] = biological target: GalNAc(b1-3)Gal(a1-4)Gal(b1-4)GlcNAc(b1-3)Gal(b1-4)Glc
# How it was run: as §1
# [8] = biological target: GalNAc(b1-3)Gal(a1-6)Gal(b1-4)Glc
# How it was run: as §1
# GalNAc(b1-3)GalNAc = biological target: GalNAc(b1-3)GalNAc
# How it was run: as §1
# GalNAc(b1-3)GlcNAc = biological target: GalNAc(b1-3)GlcNAc
# How it was run: as §1
# GalNAc(b1-4)Gal(b1-4)Glc = biological target: GalNAc(b1-4)Gal(b1-4)Glc
# How it was run: as §1
# GalNAc(b1-4)GlcNAc = biological target: GalNAc(b1-4)GlcNAc
# How it was run: as §1
# [9] = biological target: GalNAc(b1-4)GlcNAc(b1-2)Man
# How it was run: as §1
# [10] = biological target: GalNAc(b1-4)GlcNAc(b1-2)Man(a1-3)[GalNAc(b1-4)GlcNAc(b1-2)Man(a1-6)]Man(b1-4)GlcNAc(b1-4)GlcNAc
# How it was run: as §1
# [11] = biological target: GalNAc(b1-4)GlcNAc(b1-3)GalNAc(b1-4)GlcNAc
# How it was run: as §1
# GalNAc(b1-4)GlcNAc6S = biological target: GalNAc(b1-4)GlcNAc6S
# How it was run: as §1
# GalNAc(b1-6)GalNAc = biological target: GalNAc(b1-6)GalNAc
# How it was run: as §1
# GalNAc3S(b1-4)GlcNAc = biological target: GalNAc3S(b1-4)GlcNAc
# How it was run: as §1
# GalNAc3S(b1-4)GlcNAc3S = biological target: GalNAc3S(b1-4)GlcNAc3S
# How it was run: as §1
# [12] = biological target: GalNAc3S(b1-4)[Fuc(a1-3)]GlcNAc
# How it was run: as §1
# GalNAc4S6S(b1-4)GlcNAc = biological target: GalNAc4S6S(b1-4)GlcNAc
# How it was run: as §1
# GalNAc6S(b1-4)GlcNAc = biological target: GalNAc6S(b1-4)GlcNAc
# How it was run: as §1
# Glc(a1-4)Glc = biological target: Glc(a1-4)Glc
# How it was run: as §1
# [13] = biological target: Glc(a1-4)Glc(a1-4)Glc(a1-4)Glc
# How it was run: as §1
# Glc(a1-6)Glc(a1-6)Glc = biological target: Glc(a1-6)Glc(a1-6)Glc
# How it was run: as §1
# [14] = biological target: Glc(a1-6)Glc(a1-6)Glc(a1-6)Glc
# How it was run: as §1
# Glc(b1-4)Glc = biological target: Glc(b1-4)Glc
# How it was run: as §1
binder,measurement,setting,value
B1,glycan array binding signal (z-score),Gal3S(b1-4)Glc,-1.36
same,glycan array binding signal (z-score),Gal3S(b1-4)Glc6S,-0.679
same,glycan array binding signal (z-score),Gal3S(b1-4)GlcNAc,0.472
same,glycan array binding signal (z-score),[1],1.7
same,glycan array binding signal (z-score),[2],1.36
same,glycan array binding signal (z-score),[3],0.475
same,glycan array binding signal (z-score),Gal3S4S(b1-4)GlcNAc,-0.601
same,glycan array binding signal (z-score),Gal3S6S(b1-4)GlcNAc,-0.617
same,glycan array binding signal (z-score),Gal3S6S(b1-4)GlcNAc6S,1.45
same,glycan array binding signal (z-score),Gal4S(b1-4)GlcNAc,1.01
same,glycan array binding signal (z-score),Gal4S6S(b1-4)GlcNAc,0.533
same,glycan array binding signal (z-score),Gal6P(b1-4)GlcNAc,-1.29
same,glycan array binding signal (z-score),Gal6S(b1-3)GlcNAc,0.391
same,glycan array binding signal (z-score),Gal6S(b1-3)GlcNAc6S,-1.84
same,glycan array binding signal (z-score),Gal6S(b1-4)Glc,0.973
same,glycan array binding signal (z-score),Gal6S(b1-4)Glc6S,-0.058
same,glycan array binding signal (z-score),Gal6S(b1-4)GlcNAc,0.227
same,glycan array binding signal (z-score),Gal6S(b1-4)GlcNAc6S,0.373
same,glycan array binding signal (z-score),GalNAc(a1-3)Gal,-0.631
same,glycan array binding signal (z-score),GalNAc(a1-3)GalNAc,0.168
same,glycan array binding signal (z-score),[4],-0.059
same,glycan array binding signal (z-score),[5],-0.615
same,glycan array binding signal (z-score),GalNAc(b1-3)Gal,0.675
same,glycan array binding signal (z-score),[6],-0.473
same,glycan array binding signal (z-score),[7],-0.117
same,glycan array binding signal (z-score),[8],-2.32
same,glycan array binding signal (z-score),GalNAc(b1-3)GalNAc,-1.26
same,glycan array binding signal (z-score),GalNAc(b1-3)GlcNAc,-1.3
same,glycan array binding signal (z-score),GalNAc(b1-4)Gal(b1-4)Glc,0.119
same,glycan array binding signal (z-score),GalNAc(b1-4)GlcNAc,1.25
same,glycan array binding signal (z-score),[9],-0.904
same,glycan array binding signal (z-score),[10],0.234
same,glycan array binding signal (z-score),[11],-1.38
same,glycan array binding signal (z-score),GalNAc(b1-4)GlcNAc6S,-0.411
same,glycan array binding signal (z-score),GalNAc(b1-6)GalNAc,0.517
same,glycan array binding signal (z-score),GalNAc3S(b1-4)GlcNAc,-0.401
same,glycan array binding signal (z-score),GalNAc3S(b1-4)GlcNAc3S,-0.185
same,glycan array binding signal (z-score),[12],-0.619
same,glycan array binding signal (z-score),GalNAc4S6S(b1-4)GlcNAc,0.534
same,glycan array binding signal (z-score),GalNAc6S(b1-4)GlcNAc,2.02
same,glycan array binding signal (z-score),Glc(a1-4)Glc,0.013
same,glycan array binding signal (z-score),[13],-0.087
same,glycan array binding signal (z-score),Glc(a1-6)Glc(a1-6)Glc,0.663
same,glycan array binding signal (z-score),[14],0.057
same,glycan array binding signal (z-score),Glc(b1-4)Glc,-0.804

# 2 entries from above in a different format:
binder | measurement | setting | value
B1 | glycan array binding signal (z-score) | GalNAc3S(b1-4)GlcNAc3S | -0.185
same | glycan array binding signal (z-score) | [12] | -0.619

# Source: the supplement of paper PMC8728848
